Read-outs that look alike come from different tables or passages of the source. These are yes or no findings as the source states them, for the method shown. In cells and extracts the contact can be indirect. Some entries that bind do so weakly or less than the wild type. For part of these data: Where a sequence is shown, tags or fusion partners need not be part of it.
Experiments:
Assay in all cases: co-IP
[1] = molecular target: T1, Septin 2 (Sept2) coupled to enhanced green fluorescent protein (EGFP) (rat) (UniProt Q91Y81)
T1 sequence: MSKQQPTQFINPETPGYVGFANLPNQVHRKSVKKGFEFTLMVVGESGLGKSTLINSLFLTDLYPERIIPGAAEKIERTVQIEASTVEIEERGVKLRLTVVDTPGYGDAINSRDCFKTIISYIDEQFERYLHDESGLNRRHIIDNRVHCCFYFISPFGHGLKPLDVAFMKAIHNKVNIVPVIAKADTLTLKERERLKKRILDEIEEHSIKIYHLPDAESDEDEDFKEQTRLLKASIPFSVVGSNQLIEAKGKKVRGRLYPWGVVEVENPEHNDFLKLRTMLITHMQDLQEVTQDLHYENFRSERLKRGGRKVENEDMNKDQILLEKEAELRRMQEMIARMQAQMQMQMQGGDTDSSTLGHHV

[2] = molecular target: T2, Septin 2 (Sept2), wild type (rat (endogenous in NRK49F)) (UniProt Q91Y81)
T2 sequence: T1 sequence

[3] = molecular target: T1, Septin 2 (Sept2) coupled to enhanced green fluorescent protein (EGFP) (rat); remark: listed apart in the source

Measured: binding

B1: Sept9 (protein, UniProt Q9QZR6 1-564)
chain: MERDRITALKRSFEVEEIEPPNSTPPRRVQTPLLRATVASSSQKFQDLGVKNSEPAARLVDTLSQRSPKPSLRRVDLAGAKAPEPMSRRTELSIDISSKQVESTASTPGPSRFGLKRAEVLGHKTPEPVPRRTEITIVKPQESGLRRVETPASKAPEGSAMPVTDAAPKRVEIQVPKPAEAPNCPLPPQTLENSEAPMSQLQSRLEPRPPVTEVPYRNQEDSEVAPSCVVDMADNPRDAMLKQAPVSRNEKAPVDFGYVGIDSILEQMRRKAMKQGFEFNIMVVGQSGLGKSTLINTLFKSKISRKSVQPISEERIPKTIEIKSITHDIEEKGVRMKLTVIDTPGFGDHINNENCWQPIMKFINDQYEKYLQEEVNINRKKRIPDTRVHCCLYFIPATGHSLRPLDIEFMKRLSKVVNIVPVIAKADTLTLEERVYFKQRITSDLLSNGIDVYPQKEFDEAEDRLVNEKFREMIPFAVVGSDHEYQVNGKRILGRKTKWGTIEVENTTHCEFAYLRDLLIRTHMQNIKDITSNIHFEAYRVKRLNEGNSAMANGIEKEPETQEM
binds: all assays above

B2: Sept11 (protein, UniProt B3GNI6 1-431)
chain: MAVAVGRPSNEELRNLSLSGHVGFDSLPDQLVNKSTSQGFCFNILCVGETGIGKSTLMDTLFNTKFESDPATHNEPGVRLKARSYELQESNVRLKLTIVDTVGFGDQINKDDSYKPIVEYIDAQFEAYLQEELKIKRSLFNYHDTRIHACLYFIAPTGHSLKSLDLVTMKKLDSKVNIIPIIAKADTIAKNELHKFKSKIMSELVSNGVQIYQFPTDEETVAEINATMSVHLPFAVVGSTEEVKIGNKMAKARQYPWGVVQVENENHCDFVKLREMLIRVNMEDLREQTHTRHYELYRRCKLEEMGFKDTDPDSKPFSLQETYEAKRNEFLGELQKKEEEMRQMFVMRVKEKEAELKEAEKELHEKFDLLKRTHQEEKKKVEDKKKELEEEVSNFQKKKAAAQLLQSQAQQSGAQQTKKDKDKKNPWLCTE
binds: all assays above

B3: Sept8 (protein, UniProt B0BNF1 1-442)
chain: MAATDLERISNAEPEPRSLSLGGHVGFDSLPDQLVSKSVTQGFSFNILCVGETGIGKSTLMNTFFNTTFETEEASHHEECVRLRPQTYDLQESNVHLKLTIVDAVGFGDQINKDDSYRPIVDYIDTQFENYLQEELKIRRSLFDYHDTRIHVCLYFITPTGHSLKSLDLVTMKKLDSKVNIIPIIAKADTISKSELHKFKIKIMGELVSNGVQIYQFPTDDEAVAEINAVMNAHLPFAVVGSTEEVKVGNKLVRARQYPWGVVQVENENHCDFVKLREMLIRVNMEDLREQTHSRHYELYRRCKLEEMGFQDSDGDSQPFSLQETYEAKRKEFLSELQRKEEEMRQMFVNKVKETELELKEKERELHEKFEHLKRIHQEEKRKVEEKRRELEEETNAFNCRKAAMEALQSQALHATSQQPLRKDKDKKKVGGWSSIYSVTIP
binds: all assays above

B4: Sept7 (protein, UniProt Q9WVC0 1-436)
chain: MSVSARSAAAEERSVNCSTMAQPKNLEGYVGFANLPNQVYRKSVKRGFEFTLMVVGESGLGKSTLINSLFLTDLYSPEYPGPSHRIKKTVQVEQSKVLIKEGGVQLLLTIVDTPGFGDAVDNSNCWQPVIDYIDSKFEDYLNAESRVNRRQMPDNRVQCCLYFIAPSGHGLKPLDIEFMKRLHEKVNIIPLIAKADTLTPEECQQFKKQIMKEIQGHKIKIYEFPETDDEEENKLVKKIKDRLPLAVVGSNTIIEVNGKRVRGRQYPWGVAEVENGEHCDFTILRNMLIRTHMQDLKDVTNNVHYENYRSRKLAAVTYNGVDNNKNKGQLTKSPLAQMEEERREHVAKMKKMEMEMEQVFEMKVKEKVQKLKDSEAELQRRHEQMKKNLEAQHKELEEKRRQFEEEKANWEAQQRILEQQNSSRTLEKNKKKGKIF
binds: all assays above

From paper doi:10.1101/570622
